At least one compound was matched to its structure with a doubt left.
Tested on: human U251 (glioblastoma) CNS tumor cells
Settings: monotherapy or combination treatment, intracranial xenograft
Excerpt: Tumor Model: Each animal was implanted with one million U251 human CNS tumor cells from an in vitro cell line by ic injection with a 25 gauge needle. The day of tumor implantation (May 24, 2006) was designated as day 0. A sufficient number of mice were implanted so that animals with body weights in a range as narrow as possible were selected for the trial on the day of treatment initiation (day 1 after tumor implantation). Animals were randomly assigned to the treatment groups and individually identified by earmark codes.
A portion of this solution was then diluted with the complete vehicle to achieve the lower dosing concentration of 1.2 mg/mL. […] Temozolomide (Temodar, Schering Corporation) was prepared on each day of injection in Klucel+tween 80 at a concentration of 4 mg/mL. Temozolomide was administered within 5 minutes of formulation on the basis of exact body weight using a volume of 0.2 mL/10 g of body weight.
Data Collection: Animal health surveillance was conducted and mortality data were collected daily. The animals were weighed twice weekly starting with the first day of treatment. […]
Parameters Evaluated: Number of 100-day survivors, median day of death, and the increase in lifespan based on median day of death and expressed as a percentage (% ILS), median survival time and the % ILS based on median survival time. […]

Cn1nnc2c(C(N)=O)ncn2c1=O [Temozolomide]
effect against the U251 human CNS tumor cells (in words): excellent effect

From patent publication US9132118B2, “Taxane analogs for the treatment of brain cancer” (Tapestry Pharmaceuticals, Inc., priority 2007, dated 2015)
